PubChem BioAssay AID1259425 – University of Nebraska Medical Center, 2018
This is one part, drawn at random, of about 14,000 reagents. Further read-outs or replicates are left out here. Not given: the time to read-out.

Screen: 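Find knockdowns that reproduce the gene expression pattern seen when KSR1 is lost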 (primary screen)
Cell system: HCT116 human colon cancer cells
Reagent: siRNA pool against human genes, 50 nM siRNA
Measurement: 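mRNA of six signature genes measured together by branched-DNA assay after 50 nM siRNA pool, blank removed, divided by geometric mean of two housekeeping genes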
Direction: BNIP3L mRNA: higher = more BNIP3L transcript after knockdown

BNIP3L mRNA, set 1	gene
0.12	SRCAP (Snf2 related CREBBP activator protein)
0.0389	CEP104 (centrosomal protein 104)
0.0871	AFM (afamin)
0.0901	C8orf44 (chromosome 8 putative open reading frame 44)
0.0701	SSR2 (signal sequence receptor subunit 2)
0.113	MEDAG (mesenteric estrogen dependent adipogenesis)
0.133	UGT2B10 (UDP glucuronosyltransferase family 2 member B10)
0.158	GCGR (glucagon receptor)
0.0858	ZNF334 (zinc finger protein 334)
0.128	ZNF611 (zinc finger protein 611)
0.133	LGALS9 (galectin 9)
0.0807	KIAA1191
0.0975	PML (PML nuclear body scaffold)
0.0795	TRIP13 (thyroid hormone receptor interactor 13)
0.0812	TMEM121 (transmembrane protein 121)
0.0666	CEP152 (centrosomal protein 152)
0.0642	RIT1 (Ras like without CAAX 1)
0.112	FBXL19 (F-box and leucine rich repeat protein 19)
0.0466	JCAD (junctional cadherin 5 associated)
0.0713	SNRNP40 (small nuclear ribonucleoprotein U5 subunit 40)
0.0911	MAF (MAF bZIP transcription factor)
0.183	KLHL36 (kelch like family member 36)
0.0751	SCNN1G (sodium channel epithelial 1 subunit gamma)
0.117	CNDP1 (carnosine dipeptidase 1)
0.0896	RAP2C (RAP2C, member of RAS oncogene family)
0.0782	CPT1A (carnitine palmitoyltransferase 1A)
0.177	THSD1 (thrombospondin type 1 domain containing 1)
0.0619	FAM32A (family with sequence similarity 32 member A)
0.265	CFAP45 (cilia and flagella associated protein 45)
0.101	GGT7 (gamma-glutamyltransferase 7)
0.0549	PNMA3 (PNMA family member 3)
0.0864	ILF2 (interleukin enhancer binding factor 2)
0.233	GOLGA2P10 (GOLGA2 pseudogene 10)
0.0724	CRYGD (crystallin gamma D)
0.118	PTGDS (prostaglandin D2 synthase)
0.0916	AUP1 (AUP1 lipid droplet regulating VLDL assembly factor)
0.116	MKKS (MKKS centrosomal shuttling protein)
0.0941	KLF8 (KLF transcription factor 8)
0.0832	HSD17B1 (hydroxysteroid 17-beta dehydrogenase 1)
0.0849	GYS1 (glycogen synthase 1)
0.0816	GLMN (glomulin)
0.4	BEX4 (brain expressed X-linked 4)
0.0707	USP1 (ubiquitin specific peptidase 1)
0.0888	GPX5 (glutathione peroxidase 5)
0.135	S100A7 (S100 calcium binding protein A7)
0.108	SMAD4 (SMAD family member 4)
0.0747	ABCF1 (ATP binding cassette subfamily F member 1)
0.122	CLC (Charcot-Leyden crystal galectin)
0.157	AP4S1 (adaptor related protein complex 4 subunit sigma 1)
0.145	VASH1 (vasohibin 1)

Reformatted: 6 of the entries above
PNMA3 (PNMA family member 3)
- BNIP3L mRNA, set 1: 0.0549

ILF2 (interleukin enhancer binding factor 2)
- BNIP3L mRNA, set 1: 0.0864

GOLGA2P10 (GOLGA2 pseudogene 10)
- BNIP3L mRNA, set 1: 0.233

CRYGD (crystallin gamma D)
- BNIP3L mRNA, set 1: 0.0724

PTGDS (prostaglandin D2 synthase)
- BNIP3L mRNA, set 1: 0.118

AUP1 (AUP1 lipid droplet regulating VLDL assembly factor)
- BNIP3L mRNA, set 1: 0.0916
